Results deposited as PubChem BioAssay AID1259424 (University of Nebraska Medical Center, 2018)

Purpose: 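Rank knockdowns across the genome by resemblance to the KSR1 depletion profile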 (primary screen)
System: human HCT116 colon cancer cells
Reagent: siRNA pool against human genes, 50 nM
Read-out: 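Log2 levels of six mRNAs (branched-DNA multiplex), adjusted by two reference genes and the non-targeting median, then scored against the average KSR1 knockdown pattern as Pearson r and euclidean distance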
Reading the numbers: mean correlation with KSR1 profile and KSR1 correlation: higher = expression change more like KSR1 knockdown; mean distance from KSR1 profile: higher = expression change less like KSR1 knockdown
In all, the deposit lists about 14,000 reagents; shown is a random part of them. 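Higher correlation or smaller distance means closer resemblance to KSR1 loss; control wells, including KSR1 knockdowns, recur on many plates.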 Reagent sequences are not shown. Not given: the time to read-out.

Gene | mean correlation with KSR1 profile | mean distance from KSR1 profile | KSR1 correlation, replicate 1 | KSR1 correlation, replicate 2 | KSR1 correlation, replicate 3
LAMP3 (lysosome associated membrane protein 3) | -0.209 | 2.06 | -0.227 | -0.487 | -0.411
ADPRH (ADP-ribosylarginine hydrolase) | -0.53 | 3.67 | -0.419 | -0.616 | -0.644
PLA2G6 (phospholipase A2 group VI) | -0.317 | 2.24 | -0.322 | -0.129 | -0.366
MPHOSPH10 (M-phase phosphoprotein 10) | -0.0103 | 2.02 | 0.0464 | 0.0969 | -0.209
AP4E1 (adaptor related protein complex 4 subunit epsilon 1) | 0.382 | 2.16 | 0.336 | 0.406 | 0.271
TPK1 (thiamin pyrophosphokinase 1) | 0.725 | 2.73 | 0.663 | 0.551 | 0.343
KCTD3 (potassium channel tetramerization domain containing 3) | -0.341 | 1.63 | -0.436 | -0.101 | 0.12
RBM5 (RNA binding motif protein 5) | 0.949 | 1.62 | 0.904 | 0.941 | 0.715
ZC3H14 (zinc finger CCCH-type containing 14) | 0.854 | 2.82 | 0.723 | 0.92 | 0.708
CENPF (centromere protein F) | -0.311 | 2.67 | -0.252 | -0.341 | -0.409
CLIC1 (CLIC family member 1) | -0.597 | 3.52 | -0.595 | -0.609 | -0.63
LDOC1 (LDOC1 regulator of NFKB signaling) | 0.0652 | 1.59 | 0.158 | -0.0621 | -0.507

Copied from the list.
KCTD3 (potassium channel tetramerization domain containing 3), KSR1 correlation, replicate 3 = 0.12
Under “KSR1 correlation, replicate 1”, ADPRH (ADP-ribosylarginine hydrolase) shows -0.419

Additional results follow.
Gene | mean correlation with KSR1 profile | mean distance from KSR1 profile | KSR1 correlation, replicate 1 | KSR1 correlation, replicate 2 | KSR1 correlation, replicate 3
KCNMB4 | 0.0537 | 1.97 | -0.109 | -0.0792 | -0.0682
RNFT1 (ring finger protein, transmembrane 1) | -0.353 | 2.02 | -0.403 | -0.127 | -0.15
TUBB2A (tubulin beta 2A class IIa) | -0.0183 | 2.21 | -0.19 | -0.00736 | 0.359
GSTCD (glutathione S-transferase C-terminal domain containing) | 0.663 | 1.39 | 0.735 | 0.646 | 0.624
NCOR2 (nuclear receptor corepressor 2) | 0.966 | 0.972 | 0.977 | 0.974 | 0.882
FOSB (FosB proto-oncogene, AP-1 transcription factor subunit) | 0.55 | 1.6 | 0.537 | 0.345 | 0.704
TM7SF3 (transmembrane 7 superfamily member 3) | -0.738 | 3.13 | -0.589 | -0.835 | -0.679
B4GALT1 (beta-1,4-galactosyltransferase 1) | -0.136 | 2.94 | -0.34 | 0.146 | -0.0595
